# ± gives the standard deviation of the averaged measurements. Only a part is listed here, and it is no random draw. Most values lie at the level of the controls, where differences are scatter.
# Protein sequences, listed by entry. Tags and fused reporters are not part of them. Lines headed by an entry give the natural chain unless they say otherwise; changes in a name come on top.
# UniProt Q5XUX1: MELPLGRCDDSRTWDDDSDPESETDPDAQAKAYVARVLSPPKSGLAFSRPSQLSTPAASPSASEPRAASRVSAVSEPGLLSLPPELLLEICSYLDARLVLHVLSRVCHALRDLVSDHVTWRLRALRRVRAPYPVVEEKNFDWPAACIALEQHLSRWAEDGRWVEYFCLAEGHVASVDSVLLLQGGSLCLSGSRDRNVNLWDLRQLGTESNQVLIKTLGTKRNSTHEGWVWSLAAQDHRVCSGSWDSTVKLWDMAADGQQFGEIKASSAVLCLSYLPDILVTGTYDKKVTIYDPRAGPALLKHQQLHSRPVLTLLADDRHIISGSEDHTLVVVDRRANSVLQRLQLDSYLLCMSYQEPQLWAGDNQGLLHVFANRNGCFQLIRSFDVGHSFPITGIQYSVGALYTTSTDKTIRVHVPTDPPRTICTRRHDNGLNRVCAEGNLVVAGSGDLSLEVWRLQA
# UniProt Q6XQN6: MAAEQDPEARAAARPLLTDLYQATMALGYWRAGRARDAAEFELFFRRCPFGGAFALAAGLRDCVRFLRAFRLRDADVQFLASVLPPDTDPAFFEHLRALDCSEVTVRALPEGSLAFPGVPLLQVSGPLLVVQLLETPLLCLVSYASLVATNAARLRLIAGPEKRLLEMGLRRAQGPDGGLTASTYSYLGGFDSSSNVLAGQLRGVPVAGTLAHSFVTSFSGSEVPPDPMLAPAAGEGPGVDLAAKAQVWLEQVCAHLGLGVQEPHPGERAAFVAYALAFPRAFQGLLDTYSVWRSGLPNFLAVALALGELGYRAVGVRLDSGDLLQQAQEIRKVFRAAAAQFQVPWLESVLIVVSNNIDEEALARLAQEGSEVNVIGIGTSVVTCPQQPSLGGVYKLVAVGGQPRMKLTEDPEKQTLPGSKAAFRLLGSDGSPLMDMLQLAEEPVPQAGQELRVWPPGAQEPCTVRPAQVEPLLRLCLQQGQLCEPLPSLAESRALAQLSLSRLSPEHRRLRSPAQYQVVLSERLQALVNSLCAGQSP
# UniProt Q7LBC6: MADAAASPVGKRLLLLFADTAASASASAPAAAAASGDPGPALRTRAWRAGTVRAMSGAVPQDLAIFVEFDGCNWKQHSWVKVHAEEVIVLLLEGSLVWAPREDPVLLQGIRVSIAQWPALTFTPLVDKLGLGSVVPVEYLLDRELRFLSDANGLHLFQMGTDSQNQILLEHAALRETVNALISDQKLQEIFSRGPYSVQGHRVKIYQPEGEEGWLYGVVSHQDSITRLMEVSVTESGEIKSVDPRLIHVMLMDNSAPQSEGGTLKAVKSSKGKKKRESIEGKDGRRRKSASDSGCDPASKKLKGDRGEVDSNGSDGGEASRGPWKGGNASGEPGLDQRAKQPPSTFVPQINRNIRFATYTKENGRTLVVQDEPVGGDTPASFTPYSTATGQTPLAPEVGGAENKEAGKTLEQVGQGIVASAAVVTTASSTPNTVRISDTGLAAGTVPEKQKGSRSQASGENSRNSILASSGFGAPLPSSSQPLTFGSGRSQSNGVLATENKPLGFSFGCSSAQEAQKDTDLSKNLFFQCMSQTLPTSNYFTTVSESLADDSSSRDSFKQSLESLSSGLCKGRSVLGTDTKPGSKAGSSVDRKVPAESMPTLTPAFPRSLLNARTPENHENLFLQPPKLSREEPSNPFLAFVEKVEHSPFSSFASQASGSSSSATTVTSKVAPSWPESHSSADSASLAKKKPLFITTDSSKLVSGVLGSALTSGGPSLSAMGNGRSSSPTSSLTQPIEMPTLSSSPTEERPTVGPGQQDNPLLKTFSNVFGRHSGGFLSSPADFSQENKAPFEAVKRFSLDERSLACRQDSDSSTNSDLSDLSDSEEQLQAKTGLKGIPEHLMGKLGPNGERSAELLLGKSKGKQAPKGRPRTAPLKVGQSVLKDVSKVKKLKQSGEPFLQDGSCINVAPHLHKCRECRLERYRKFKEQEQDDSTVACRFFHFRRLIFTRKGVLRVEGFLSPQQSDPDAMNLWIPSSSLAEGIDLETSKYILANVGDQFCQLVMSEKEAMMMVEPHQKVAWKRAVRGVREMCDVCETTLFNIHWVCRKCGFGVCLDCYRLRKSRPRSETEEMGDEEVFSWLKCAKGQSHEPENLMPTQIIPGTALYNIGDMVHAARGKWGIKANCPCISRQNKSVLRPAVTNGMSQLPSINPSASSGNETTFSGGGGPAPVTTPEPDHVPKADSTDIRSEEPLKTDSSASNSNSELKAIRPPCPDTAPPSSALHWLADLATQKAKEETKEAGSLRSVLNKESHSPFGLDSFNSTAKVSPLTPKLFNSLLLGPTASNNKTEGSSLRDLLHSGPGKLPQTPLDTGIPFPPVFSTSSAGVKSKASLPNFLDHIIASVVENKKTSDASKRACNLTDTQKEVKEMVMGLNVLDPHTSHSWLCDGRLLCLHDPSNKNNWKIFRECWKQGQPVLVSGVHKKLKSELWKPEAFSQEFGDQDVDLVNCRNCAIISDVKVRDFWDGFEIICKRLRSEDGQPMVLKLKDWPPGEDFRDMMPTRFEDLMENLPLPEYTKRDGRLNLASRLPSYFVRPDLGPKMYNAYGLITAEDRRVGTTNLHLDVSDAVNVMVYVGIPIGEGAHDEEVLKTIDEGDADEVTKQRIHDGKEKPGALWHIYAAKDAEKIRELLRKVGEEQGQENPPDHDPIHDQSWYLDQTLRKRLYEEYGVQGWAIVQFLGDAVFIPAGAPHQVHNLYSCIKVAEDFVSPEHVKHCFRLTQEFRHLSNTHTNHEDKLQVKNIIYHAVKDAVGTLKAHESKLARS
# UniProt Q6PJG2: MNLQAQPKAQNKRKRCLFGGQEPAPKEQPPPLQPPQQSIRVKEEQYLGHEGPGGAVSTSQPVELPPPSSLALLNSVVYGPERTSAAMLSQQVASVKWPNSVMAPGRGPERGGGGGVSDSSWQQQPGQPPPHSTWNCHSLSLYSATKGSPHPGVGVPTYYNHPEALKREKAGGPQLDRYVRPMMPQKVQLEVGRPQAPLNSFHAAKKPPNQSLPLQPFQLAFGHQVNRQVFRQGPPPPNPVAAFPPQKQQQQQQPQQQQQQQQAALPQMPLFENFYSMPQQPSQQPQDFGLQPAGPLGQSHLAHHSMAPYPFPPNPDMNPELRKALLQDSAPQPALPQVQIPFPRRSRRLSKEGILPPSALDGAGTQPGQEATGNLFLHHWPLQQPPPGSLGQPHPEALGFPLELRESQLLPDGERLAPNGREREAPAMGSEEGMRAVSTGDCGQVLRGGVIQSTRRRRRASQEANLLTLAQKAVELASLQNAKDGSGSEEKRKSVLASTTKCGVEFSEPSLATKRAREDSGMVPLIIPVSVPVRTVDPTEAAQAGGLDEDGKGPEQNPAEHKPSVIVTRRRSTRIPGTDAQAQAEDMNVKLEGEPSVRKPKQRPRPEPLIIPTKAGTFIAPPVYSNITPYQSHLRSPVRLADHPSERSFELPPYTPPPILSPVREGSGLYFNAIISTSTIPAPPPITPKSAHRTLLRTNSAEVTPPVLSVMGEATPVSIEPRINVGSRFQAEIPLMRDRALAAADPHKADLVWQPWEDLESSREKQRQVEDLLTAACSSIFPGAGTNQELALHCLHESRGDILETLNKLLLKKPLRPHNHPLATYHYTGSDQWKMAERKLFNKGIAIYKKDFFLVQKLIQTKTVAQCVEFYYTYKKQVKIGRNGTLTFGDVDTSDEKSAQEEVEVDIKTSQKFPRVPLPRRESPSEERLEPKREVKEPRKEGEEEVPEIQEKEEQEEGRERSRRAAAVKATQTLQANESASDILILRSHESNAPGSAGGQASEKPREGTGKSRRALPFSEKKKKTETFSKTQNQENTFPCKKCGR
# UniProt Q68DH5: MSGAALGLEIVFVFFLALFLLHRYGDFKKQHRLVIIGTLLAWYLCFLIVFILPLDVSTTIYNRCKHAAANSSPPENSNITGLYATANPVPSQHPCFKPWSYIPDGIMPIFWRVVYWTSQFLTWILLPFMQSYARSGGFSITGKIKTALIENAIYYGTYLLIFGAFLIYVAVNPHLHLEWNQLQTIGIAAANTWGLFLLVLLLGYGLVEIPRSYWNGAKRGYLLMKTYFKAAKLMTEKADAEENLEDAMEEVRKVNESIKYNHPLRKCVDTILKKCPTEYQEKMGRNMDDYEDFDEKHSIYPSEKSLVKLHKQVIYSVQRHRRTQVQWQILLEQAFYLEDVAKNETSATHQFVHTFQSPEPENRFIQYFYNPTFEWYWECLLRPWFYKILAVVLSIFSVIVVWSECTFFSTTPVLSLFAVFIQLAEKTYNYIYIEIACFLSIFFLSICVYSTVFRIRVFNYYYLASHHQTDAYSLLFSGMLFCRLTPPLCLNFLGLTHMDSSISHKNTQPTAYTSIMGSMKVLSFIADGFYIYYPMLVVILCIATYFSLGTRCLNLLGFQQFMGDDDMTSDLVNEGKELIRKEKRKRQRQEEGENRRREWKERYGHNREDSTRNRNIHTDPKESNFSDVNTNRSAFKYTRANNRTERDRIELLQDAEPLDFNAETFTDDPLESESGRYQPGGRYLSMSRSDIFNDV
# UniProt Q6PCB7: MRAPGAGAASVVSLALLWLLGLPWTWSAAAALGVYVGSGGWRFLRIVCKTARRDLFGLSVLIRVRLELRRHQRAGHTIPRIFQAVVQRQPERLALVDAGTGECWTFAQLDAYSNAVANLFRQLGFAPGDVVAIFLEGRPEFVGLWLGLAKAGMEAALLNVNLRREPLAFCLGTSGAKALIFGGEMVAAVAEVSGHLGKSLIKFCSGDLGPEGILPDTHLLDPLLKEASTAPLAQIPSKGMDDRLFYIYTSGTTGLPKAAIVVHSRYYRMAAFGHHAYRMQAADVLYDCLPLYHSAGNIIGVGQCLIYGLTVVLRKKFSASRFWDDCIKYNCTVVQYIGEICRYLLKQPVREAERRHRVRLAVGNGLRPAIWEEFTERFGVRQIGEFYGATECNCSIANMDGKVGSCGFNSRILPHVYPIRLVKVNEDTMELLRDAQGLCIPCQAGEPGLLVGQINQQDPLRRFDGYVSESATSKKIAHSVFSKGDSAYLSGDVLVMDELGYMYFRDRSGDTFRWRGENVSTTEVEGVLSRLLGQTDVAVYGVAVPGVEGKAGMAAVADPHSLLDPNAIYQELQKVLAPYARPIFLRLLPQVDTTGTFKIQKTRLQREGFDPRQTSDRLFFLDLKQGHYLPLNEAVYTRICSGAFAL
# UniProt Q6P158: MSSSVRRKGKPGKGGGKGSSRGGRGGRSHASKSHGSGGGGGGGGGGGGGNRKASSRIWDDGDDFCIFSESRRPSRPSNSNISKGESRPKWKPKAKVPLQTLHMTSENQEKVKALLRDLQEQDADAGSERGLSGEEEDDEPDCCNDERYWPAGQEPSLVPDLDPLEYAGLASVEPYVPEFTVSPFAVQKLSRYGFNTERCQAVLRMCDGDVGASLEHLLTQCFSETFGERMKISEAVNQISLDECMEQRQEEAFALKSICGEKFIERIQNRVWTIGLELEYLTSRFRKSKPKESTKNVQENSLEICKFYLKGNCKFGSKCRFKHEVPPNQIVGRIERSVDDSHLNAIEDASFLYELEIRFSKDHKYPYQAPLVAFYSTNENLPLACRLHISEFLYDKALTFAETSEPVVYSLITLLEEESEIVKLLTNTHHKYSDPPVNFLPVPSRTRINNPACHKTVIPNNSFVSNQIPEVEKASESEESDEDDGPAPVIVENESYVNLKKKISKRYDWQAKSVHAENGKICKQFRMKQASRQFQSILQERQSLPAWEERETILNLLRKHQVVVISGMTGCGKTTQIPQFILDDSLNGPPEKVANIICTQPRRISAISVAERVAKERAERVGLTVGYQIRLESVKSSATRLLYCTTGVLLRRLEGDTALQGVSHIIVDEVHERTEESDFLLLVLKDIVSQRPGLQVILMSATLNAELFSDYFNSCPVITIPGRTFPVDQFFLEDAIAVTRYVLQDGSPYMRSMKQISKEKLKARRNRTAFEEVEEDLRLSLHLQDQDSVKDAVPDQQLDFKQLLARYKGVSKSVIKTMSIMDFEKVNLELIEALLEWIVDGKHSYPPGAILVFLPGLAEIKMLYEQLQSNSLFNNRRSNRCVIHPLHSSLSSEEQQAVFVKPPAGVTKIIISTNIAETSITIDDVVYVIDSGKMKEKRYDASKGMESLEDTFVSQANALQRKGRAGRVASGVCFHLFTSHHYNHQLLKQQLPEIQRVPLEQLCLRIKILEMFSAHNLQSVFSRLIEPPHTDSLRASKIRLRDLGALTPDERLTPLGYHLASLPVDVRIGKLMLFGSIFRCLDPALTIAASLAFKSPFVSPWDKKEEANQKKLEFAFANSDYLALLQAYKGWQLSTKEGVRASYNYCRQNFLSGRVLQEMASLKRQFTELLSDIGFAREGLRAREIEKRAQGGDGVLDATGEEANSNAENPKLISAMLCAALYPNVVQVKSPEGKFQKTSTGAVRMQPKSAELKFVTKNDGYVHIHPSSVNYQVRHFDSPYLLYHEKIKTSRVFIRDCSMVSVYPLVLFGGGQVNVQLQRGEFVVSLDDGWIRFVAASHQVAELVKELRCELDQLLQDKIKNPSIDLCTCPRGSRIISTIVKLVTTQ
# Compound: Nc1ncnc2c1ncn2[C@@H]1O[C@H](COP(=O)(O)OP(=O)(O)NP(=O)(O)O)[C@@H](O)[C@H]1O [adenylyl imidodiphosphate]
# Assay: NP40-soluble protein abundance relative to vehicle (solubility fold change) (ratio); higher = more soluble protein in presence of AMP-PNP
# Method in brief: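 Across three independent experiments, values are fold changes against the detergent-processed vehicle for each replicate, based on vsn-normalised intensities. The samples were Jurkat crude lysate treated with eight concentrations (0.1 to 10 mM) for 10 min at room temperature and then 3 min at 37 °C. Lysate was solubilised with 0.8% NP40 and benzonase, ultracentrifuged, and the supernatant analysed by TMT-labelled LC-MS/MS.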
Target,NP40-soluble protein abundance (concentration: 0.1mM),NP40-soluble protein abundance (concentration: 0.5mM)
UniProt Q5VZE5,0.998 ± 0.028,1.03 ± 0.028
ZNF318 (UniProt Q5VUA4),0.974 ± 0.04,0.969 ± 0.042
UniProt Q5XUX1 and related entries,0.987 ± 0.016,1 ± 0.034
UniProt Q6XQN6 and related entries,0.975 ± 0.027,0.977 ± 0.019
UniProt Q7Z3J2 and related entries,0.986 ± 0.02,1.02 ± 0.056
MRM1 (UniProt Q6IN84),0.9899 ± 0.0091,1.01 ± 0.033
UniProt Q6P2P2,1.01 ± 0.015,1.03 ± 0.024
UniProt Q7Z460 and related entries,0.988 ± 0.012,0.997 ± 0.042
UniProt Q7Z3E2,0.984 ± 0.041,0.978 ± 0.021
UniProt Q7LBC6,0.978 ± 0.026,1 ± 0.04
UniProt Q6NUQ4 and related entries,0.992 ± 0.024,0.997 ± 0.035
ELMSAN1 (UniProt Q6PJG2),1.015 ± 0.0041,1.01 ± 0.024
LMBRD2 (UniProt Q68DH5),0.979 ± 0.061,1 ± 0.019
UniProt Q71SY5 and related entries,1.03 ± 0.062,1.05 ± 0.088
TTC33 (UniProt Q6PID6),0.97 ± 0.024,1 ± 0.007
ARHGAP11A (UniProt Q6P4F7),1.043 ± 0.0085,0.988 ± 0.031
UniProt Q7Z4G1 and related entries,1.04 ± 0.022,1.03 ± 0.017
UniProt Q7Z406 and related entries,1.02 ± 0.044,1.05 ± 0.079
UniProt Q6PCB7 and related entries,1.01 ± 0.054,1.01 ± 0.028
Q5VVD7 and related entries (UniProt Q8IWE5),0.984 ± 0.027,0.988 ± 0.02
CYFIP1 (UniProt Q7L576),1.07 ± 0.074,1 ± 0.13
DHX57 (UniProt Q6P158),1 ± 0.028,0.997 ± 0.015

# Quoted from the listing.
# In NP40-soluble protein abundance (concentration: 0.1mM), UniProt Q71SY5 and related entries is entered as 1.03 ± 0.062
# In NP40-soluble protein abundance (concentration: 0.1mM), UniProt Q6PCB7 and related entries is entered as 1.01 ± 0.054
